Assay results published in patent US11919899B2, “Substituted 1-(3,3-difluoropiperidin-4-yl)-imidazo[4,5-c] quinolin-2-one compounds with blood-brain barrier penetrable capability” (priority 2020, dated 2024).
Some of these results come from one statement about several compounds together.

Amino acid sequences for entries named in this document (tags omitted). A change or cut given only in a name is not applied to a line headed by its entry.
UniProt P08183, whole entry: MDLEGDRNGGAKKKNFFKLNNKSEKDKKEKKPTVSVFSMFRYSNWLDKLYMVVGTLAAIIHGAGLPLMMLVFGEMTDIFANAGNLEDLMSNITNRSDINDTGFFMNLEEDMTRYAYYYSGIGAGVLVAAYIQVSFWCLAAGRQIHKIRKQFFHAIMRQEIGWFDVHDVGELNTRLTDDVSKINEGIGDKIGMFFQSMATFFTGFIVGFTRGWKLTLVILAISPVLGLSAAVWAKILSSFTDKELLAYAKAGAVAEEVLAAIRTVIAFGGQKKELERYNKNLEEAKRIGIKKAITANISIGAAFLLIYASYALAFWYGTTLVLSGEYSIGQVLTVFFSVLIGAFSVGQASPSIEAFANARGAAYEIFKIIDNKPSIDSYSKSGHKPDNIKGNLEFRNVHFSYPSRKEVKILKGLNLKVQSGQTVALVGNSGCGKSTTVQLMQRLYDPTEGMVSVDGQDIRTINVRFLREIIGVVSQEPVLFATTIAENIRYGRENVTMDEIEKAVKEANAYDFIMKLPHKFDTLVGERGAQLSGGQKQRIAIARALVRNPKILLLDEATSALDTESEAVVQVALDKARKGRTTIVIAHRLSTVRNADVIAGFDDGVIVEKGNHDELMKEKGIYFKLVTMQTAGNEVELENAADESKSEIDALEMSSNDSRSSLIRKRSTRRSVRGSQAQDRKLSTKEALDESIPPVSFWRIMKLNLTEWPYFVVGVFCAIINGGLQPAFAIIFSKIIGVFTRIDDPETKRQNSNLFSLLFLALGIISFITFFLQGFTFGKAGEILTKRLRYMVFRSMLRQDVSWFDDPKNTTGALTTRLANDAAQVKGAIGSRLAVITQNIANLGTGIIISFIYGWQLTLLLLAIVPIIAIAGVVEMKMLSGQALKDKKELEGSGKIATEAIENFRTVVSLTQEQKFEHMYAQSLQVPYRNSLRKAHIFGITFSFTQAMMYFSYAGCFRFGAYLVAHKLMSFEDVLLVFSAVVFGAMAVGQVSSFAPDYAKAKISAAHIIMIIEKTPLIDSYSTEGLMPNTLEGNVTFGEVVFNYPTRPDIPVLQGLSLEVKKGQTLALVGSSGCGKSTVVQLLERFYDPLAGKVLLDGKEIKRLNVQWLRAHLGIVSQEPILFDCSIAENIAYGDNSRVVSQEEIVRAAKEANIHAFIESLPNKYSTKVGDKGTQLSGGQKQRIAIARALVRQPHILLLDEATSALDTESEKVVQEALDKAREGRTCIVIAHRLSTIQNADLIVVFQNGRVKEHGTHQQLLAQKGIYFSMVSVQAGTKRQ
UniProt Q13315: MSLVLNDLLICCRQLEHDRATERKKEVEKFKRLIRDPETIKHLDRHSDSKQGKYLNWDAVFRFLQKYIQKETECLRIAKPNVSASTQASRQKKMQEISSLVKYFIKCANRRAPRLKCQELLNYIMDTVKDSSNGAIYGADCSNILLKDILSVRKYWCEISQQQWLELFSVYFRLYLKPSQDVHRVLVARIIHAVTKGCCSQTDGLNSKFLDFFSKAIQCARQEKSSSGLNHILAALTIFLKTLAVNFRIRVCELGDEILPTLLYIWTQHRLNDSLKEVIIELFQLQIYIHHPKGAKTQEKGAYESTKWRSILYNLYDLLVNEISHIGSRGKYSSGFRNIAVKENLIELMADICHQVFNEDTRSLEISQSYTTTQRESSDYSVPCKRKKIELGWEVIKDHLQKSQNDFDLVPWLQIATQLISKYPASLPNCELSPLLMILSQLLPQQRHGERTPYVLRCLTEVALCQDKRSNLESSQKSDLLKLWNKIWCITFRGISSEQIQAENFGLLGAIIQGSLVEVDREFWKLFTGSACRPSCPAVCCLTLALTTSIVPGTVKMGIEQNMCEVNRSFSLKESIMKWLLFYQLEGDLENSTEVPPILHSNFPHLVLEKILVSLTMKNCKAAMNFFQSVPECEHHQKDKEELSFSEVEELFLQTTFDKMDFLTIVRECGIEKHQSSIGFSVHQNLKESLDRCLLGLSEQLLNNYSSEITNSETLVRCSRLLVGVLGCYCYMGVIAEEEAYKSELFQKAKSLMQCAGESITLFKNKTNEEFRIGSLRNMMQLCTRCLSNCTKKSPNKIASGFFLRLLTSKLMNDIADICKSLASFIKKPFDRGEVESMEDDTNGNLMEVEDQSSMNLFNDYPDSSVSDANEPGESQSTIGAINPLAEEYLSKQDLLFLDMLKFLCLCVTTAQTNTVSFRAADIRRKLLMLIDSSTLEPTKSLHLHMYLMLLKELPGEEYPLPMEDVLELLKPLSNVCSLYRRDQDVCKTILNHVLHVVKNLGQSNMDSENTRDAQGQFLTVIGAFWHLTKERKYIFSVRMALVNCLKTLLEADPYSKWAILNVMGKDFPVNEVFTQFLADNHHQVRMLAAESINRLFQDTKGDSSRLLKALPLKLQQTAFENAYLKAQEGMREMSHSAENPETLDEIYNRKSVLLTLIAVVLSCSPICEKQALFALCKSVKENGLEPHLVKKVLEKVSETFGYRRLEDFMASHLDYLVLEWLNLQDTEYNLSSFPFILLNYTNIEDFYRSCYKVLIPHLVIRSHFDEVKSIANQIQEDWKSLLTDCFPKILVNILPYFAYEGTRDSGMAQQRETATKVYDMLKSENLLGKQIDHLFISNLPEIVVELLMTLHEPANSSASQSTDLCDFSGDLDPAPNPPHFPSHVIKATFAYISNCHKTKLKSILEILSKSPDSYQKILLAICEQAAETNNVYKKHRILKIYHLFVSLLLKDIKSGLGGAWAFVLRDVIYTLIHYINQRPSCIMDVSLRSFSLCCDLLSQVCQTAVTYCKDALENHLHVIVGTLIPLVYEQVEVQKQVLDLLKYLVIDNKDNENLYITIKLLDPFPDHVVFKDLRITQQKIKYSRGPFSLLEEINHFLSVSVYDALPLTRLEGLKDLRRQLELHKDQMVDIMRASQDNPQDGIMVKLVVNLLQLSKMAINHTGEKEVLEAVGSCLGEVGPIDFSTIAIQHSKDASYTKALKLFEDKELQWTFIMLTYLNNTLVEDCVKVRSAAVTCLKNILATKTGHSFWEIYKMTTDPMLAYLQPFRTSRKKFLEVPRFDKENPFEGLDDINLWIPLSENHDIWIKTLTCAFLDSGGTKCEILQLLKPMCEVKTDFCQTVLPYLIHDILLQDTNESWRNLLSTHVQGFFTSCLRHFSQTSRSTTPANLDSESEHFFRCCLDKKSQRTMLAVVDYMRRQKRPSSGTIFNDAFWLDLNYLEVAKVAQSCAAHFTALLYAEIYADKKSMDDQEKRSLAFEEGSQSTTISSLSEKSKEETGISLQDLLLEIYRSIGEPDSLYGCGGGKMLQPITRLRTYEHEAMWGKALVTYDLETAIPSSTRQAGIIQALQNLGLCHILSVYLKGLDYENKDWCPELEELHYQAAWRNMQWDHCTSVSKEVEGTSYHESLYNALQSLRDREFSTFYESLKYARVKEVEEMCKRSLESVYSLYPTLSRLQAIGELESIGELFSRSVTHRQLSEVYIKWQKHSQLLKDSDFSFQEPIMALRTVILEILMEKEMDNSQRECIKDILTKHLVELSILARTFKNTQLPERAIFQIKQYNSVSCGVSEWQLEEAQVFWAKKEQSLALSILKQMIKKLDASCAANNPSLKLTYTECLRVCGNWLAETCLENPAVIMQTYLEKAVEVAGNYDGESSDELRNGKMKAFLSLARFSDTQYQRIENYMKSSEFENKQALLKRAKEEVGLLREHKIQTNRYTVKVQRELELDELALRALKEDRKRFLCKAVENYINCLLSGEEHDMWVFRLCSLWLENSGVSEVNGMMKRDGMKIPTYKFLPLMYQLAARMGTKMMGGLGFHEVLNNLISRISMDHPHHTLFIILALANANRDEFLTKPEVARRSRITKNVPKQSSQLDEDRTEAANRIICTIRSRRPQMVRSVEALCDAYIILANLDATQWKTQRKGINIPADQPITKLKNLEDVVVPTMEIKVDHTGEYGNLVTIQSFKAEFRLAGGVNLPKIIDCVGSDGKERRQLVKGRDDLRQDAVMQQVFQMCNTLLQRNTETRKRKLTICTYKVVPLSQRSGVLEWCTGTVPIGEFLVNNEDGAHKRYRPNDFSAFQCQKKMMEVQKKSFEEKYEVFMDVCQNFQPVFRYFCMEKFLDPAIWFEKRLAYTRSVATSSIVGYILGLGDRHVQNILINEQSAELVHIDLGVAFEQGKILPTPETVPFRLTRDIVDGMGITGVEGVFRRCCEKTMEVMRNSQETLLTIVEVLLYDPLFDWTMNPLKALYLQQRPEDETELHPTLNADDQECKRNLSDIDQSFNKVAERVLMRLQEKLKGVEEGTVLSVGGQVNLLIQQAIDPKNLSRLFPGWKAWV

Columns and labels:
[1] = molecular target: T1, Human aldehyde oxidase (hAOX) (Homo sapiens, UniProt Q06278); experiment: Aldehyde oxidase susceptibility; assay type: in vitro ADME
T1 sequence (Q06278 1-1338): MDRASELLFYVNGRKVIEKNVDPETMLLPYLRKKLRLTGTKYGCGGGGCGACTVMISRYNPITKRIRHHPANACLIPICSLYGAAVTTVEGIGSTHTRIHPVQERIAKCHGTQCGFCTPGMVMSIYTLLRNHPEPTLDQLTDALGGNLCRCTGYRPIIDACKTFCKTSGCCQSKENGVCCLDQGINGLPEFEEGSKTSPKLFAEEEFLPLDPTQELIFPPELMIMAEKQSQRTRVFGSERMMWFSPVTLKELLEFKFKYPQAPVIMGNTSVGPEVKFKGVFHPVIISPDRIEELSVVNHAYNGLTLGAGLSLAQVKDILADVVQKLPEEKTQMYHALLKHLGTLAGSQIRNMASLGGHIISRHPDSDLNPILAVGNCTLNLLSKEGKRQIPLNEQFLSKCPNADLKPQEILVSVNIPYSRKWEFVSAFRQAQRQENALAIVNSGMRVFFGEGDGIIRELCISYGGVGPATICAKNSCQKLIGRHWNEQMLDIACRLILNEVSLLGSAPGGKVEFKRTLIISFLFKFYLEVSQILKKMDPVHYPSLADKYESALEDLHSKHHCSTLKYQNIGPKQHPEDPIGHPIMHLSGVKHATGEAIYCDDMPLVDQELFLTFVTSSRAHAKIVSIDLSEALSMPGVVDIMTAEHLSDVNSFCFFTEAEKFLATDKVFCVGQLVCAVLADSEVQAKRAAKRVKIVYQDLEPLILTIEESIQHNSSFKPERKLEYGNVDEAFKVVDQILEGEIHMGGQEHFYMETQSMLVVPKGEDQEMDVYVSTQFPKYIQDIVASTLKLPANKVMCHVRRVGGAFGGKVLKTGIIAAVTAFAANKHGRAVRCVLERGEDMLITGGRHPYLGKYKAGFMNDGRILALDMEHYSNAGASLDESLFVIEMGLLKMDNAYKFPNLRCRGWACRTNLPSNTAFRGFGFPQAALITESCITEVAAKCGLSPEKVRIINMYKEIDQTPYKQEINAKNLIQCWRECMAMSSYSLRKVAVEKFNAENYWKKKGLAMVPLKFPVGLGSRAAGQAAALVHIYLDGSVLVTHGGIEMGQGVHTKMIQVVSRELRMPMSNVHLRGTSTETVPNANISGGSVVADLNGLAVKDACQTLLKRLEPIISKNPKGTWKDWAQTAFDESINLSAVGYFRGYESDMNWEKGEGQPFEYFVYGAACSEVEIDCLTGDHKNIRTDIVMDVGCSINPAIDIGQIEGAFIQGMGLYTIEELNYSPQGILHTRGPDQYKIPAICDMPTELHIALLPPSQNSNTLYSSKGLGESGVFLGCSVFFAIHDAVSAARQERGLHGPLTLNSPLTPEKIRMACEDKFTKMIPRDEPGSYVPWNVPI

[2] = molecular target: T2, BCRP (Breast Cancer Resistance Protein) (Homo sapiens, UniProt Q9UNQ0); experiment: BCRP efflux substrate; assay type: in vitro ADME; conditions: substrate if Efflux ratio>1.5
T2 sequence (Q9UNQ0 1-655): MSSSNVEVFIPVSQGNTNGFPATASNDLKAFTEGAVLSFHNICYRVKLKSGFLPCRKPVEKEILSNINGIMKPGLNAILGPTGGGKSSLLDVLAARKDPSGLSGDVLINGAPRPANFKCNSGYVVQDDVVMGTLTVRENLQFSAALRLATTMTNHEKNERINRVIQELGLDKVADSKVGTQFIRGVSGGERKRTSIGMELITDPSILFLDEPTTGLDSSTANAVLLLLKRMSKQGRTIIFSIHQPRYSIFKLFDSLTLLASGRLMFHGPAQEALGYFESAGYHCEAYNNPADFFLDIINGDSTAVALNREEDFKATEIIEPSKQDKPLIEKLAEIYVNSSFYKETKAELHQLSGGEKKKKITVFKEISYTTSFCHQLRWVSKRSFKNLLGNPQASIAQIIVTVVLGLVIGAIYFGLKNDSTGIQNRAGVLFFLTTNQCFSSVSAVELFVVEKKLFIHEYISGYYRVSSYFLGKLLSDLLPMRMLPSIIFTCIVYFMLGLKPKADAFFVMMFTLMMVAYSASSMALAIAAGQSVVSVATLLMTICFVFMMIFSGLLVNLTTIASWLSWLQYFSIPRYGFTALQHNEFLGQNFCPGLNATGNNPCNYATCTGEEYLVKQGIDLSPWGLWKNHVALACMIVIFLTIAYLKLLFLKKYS

P-glycoprotein = P-glycoprotein (Homo sapiens, UniProt P08183); experiment: P-glycoprotein efflux substrate; assay type: in vitro ADME; conditions: substrate if Efflux ratio>1.5
ATM protein = molecular target: T3, ATM protein (Homo sapiens, UniProt Q13315); experiment: MCF-7 cell pATM inhibition (phosphorylation of ATM protein, anti-pKAP1 readout, Etoposide); assay type: cell-based; conditions: MCF-7 cells, compound and Etoposide 1 h
T3 construct: Phosphorylation of ATM protein using MCF-7 cell was detected; endogenous in cells; host or cells: MCF-7

Aldehyde oxidase substrate [1] | BCRP efflux substrate [2] | P-glycoprotein efflux substrate (P-glycoprotein) | IC50 (ATM protein) [nM] | SMILES
No | No | No | < 100 | CC(C)Oc1ccc(-c2ccc3ncc4c(c3c2)n([C@H]2CCN(C)CC2(F)F)c(=O)n4C)cn1 [Compound 34, (S)-1-(3,3-difluoro-1-methylpiperidin-4-yl)-8-(6-isopropoxypyridin-3-yl)-3-methyl-1,3-dihydro-2H-imidazo[4,5-c]quinolin-2-one]
No | No | No | < 100 | CC(C)Oc1ccc(-c2ccc3ncc4c(c3c2)n(C2CCN(C)CC2(F)F)c(=O)n4C)cn1 (racemic) [Compound 7, (R/S)-1-(3,3-difluoro-1-methylpiperidin-4-yl)-8-(6-isopropoxypyridin-3-yl)-3-methyl-1,3-dihydro-2H-imidazo[4,5-c]quinolin-2-one]
No | No | No | < 100 | CCN1CCC(n2c(=O)n(C)c3cnc4ccc(-c5ccc(OC)nc5)cc4c32)C(F)(F)C1 (racemic) [Compound 2, (R/S)-1-(1-ethyl-3,3-difluoropiperidin-4-yl)-8-(6-methoxypyridin-3-yl)-3-methyl-1,3-dihydro-2H-imidazo[4,5-c]quinolin-2-one]
No | No | No | < 100 | CN1CC[C@@H](n2c(=O)n(C)c3cnc4ccc(-c5ccc(N6C[C@@H]7[C@H]6CCN7C)nc5)cc4c32)C(F)(F)C1 [Compound 26]
No | No | No | < 100 | COc1ccc(-c2cc3c(cc2F)ncc2c3n(C3CCN(C)CC3(F)F)c(=O)n2C)cn1 (racemic) [Compound 5, (R/S)-1-(3,3-difluoro-1-methylpiperidin-4-yl)-7-fluoro-8-(6-methoxypyridin-3-yl)-3-methyl-1,3-dihydro-2H-imidazo[4,5-c]quinolin-2-one]
No | No | No | < 100 | CN1CCC(n2c(=O)n(C)c3cnc4ccc(-c5ccc(OC6CC6)nc5)cc4c32)C(F)(F)C1 (racemic) [Compound 10, (R/S)-8-(6-cyclopropoxypyridin-3-yl)-1-(3,3-difluoro-1-methylpiperidin-4-yl)-3-methyl-1,3-dihydro-2H-imidazo[4,5-c]quinolin-2-one]
No | No | No | < 100 | CCN1CC[C@H](n2c(=O)n(C)c3cnc4ccc(-c5ccc(OC)nc5)cc4c32)C(F)(F)C1 [Compound 29, (S)-1-(1-ethyl-3,3-difluoropiperidin-4-yl)-8-(6-methoxypyridin-3-yl)-3-methyl-1,3-dihydro-2H-imidazo[4,5-c]quinolin-2-one]
No | No | No | < 100 | COc1ccc(-c2cc3c(cc2F)ncc2c3n([C@H]3CCN(C)CC3(F)F)c(=O)n2C)cn1 [Compound 32, (S)-1-(3,3-difluoro-1-methylpiperidin-4-yl)-7-fluoro-8-(6-methoxypyridin-3-yl)-3-methyl-1,3-dihydro-2H-imidazo[4,5-c]quinolin-2-one]
No | No | No | < 100 | CN1CC[C@H](n2c(=O)n(C)c3cnc4ccc(-c5ccc(OC6CC6)nc5)cc4c32)C(F)(F)C1 [Compound 37, (S)-8-(6-cyclopropoxypyridin-3-yl)-1-(3,3-difluoro-1-methylpiperidin-4-yl)-3-methyl-1,3-dihydro-2H-imidazo[4,5-c]quinolin-2-one]
No | No | No | < 100 | COc1ccc(-c2ccc3ncc4c(c3c2)n([C@H]2CCN(C(C)C)CC2(F)F)c(=O)n4C)cn1 [Compound 30, (S)-1-(3,3-difluoro-1-isopropylpiperidin-4-yl)-8-(6-methoxypyridin-3-yl)-3-methyl-1,3-dihydro-2H-imidazo[4,5-c]quinolin-2-one]
No | No | No | < 100 | COc1ccc(-c2ccc3ncc4c(c3c2)n([C@@H]2CCN(C(C)C)CC2(F)F)c(=O)n4C)cn1 [Compound 16, (R)-1-(3,3-difluoro-1-isopropylpiperidin-4-yl)-8-(6-methoxypyridin-3-yl)-3-methyl-1,3-dihydro-2H-imidazo[4,5-c]quinolin-2-one]
No | No | No | < 100 | CCOc1ccc(-c2ccc3ncc4c(c3c2)n([C@H]2CCN(C)CC2(F)F)c(=O)n4C)cn1 [Compound 31, (S)-1-(3,3-difluoro-1-methylpiperidin-4-yl)-8-(6-ethoxypyridin-3-yl)-3-methyl-1,3-dihydro-2H-imidazo[4,5-c]quinolin-2-one]
No | No | No | < 100 | CN1CC[C@@H](n2c(=O)n(C)c3cnc4ccc(-c5ccc(OC6CC6)nc5)cc4c32)C(F)(F)C1 [Compound 23, (R)-8-(6-cyclopropoxypyridin-3-yl)-1-(3,3-difluoro-1-methylpiperidin-4-yl)-3-methyl-1,3-dihydro-2H-imidazo[4,5-c]quinolin-2-one]
No | No | No | < 100 | CN1CC[C@H](n2c(=O)n(C)c3cnc4ccc(-c5ccc(N(C)C)nc5)cc4c32)C(F)(F)C1 [Compound 35, (S)-1-(3,3-difluoro-1-methylpiperidin-4-yl)-8-(6-(dimethylamino)pyridin-3-yl)-3-methyl-1,3-dihydro-2H-imidazo[4,5-c]quinolin-2-one]
No | No | No | < 100 | CN1CCC(n2c(=O)n(C)c3cnc4ccc(-c5ccc(N6CC(N(C)C)C6)nc5)cc4c32)C(F)(F)C1 (racemic) [Compound 11, (R/S)-1-(3,3-difluoro-1-methylpiperidin-4-yl)-8-(6-(3-(dimethylamino)azetidin-1-yl)pyridin-3-yl)-3-methyl-1,3-dihydro-2H-imidazo[4,5-c]quinolin-2-one]
